Paper PMC5965902
Results are given in words; binding and its absence hold for the method and conditions named. Some binding calls cover weakened binding; strength is not graded here. Each block holds one molecule with its values, some of them ahead of it.

Key:
[1] = molecular target: RitR (Repressor of iron transport Regulator), wild type (Streptococcus pneumoniae strain R800); experiment: SEC; BioBasic SEC-300A, 10 mM TRIS pH 6.5, 150 mM NaCl, 100 mM malic acid; no DTT and no H2O2; both purified
[2] = molecular target: RitR (Repressor of iron transport Regulator), wild type (Streptococcus pneumoniae strain R800); experiment: 2D 1H-15N HSQC NMR; 15N-labelled wild-type RitR, 360 μM, DTT titrated to 10 mM; both purified
[3] = molecular target: RitR (Repressor of iron transport Regulator), wild type (Streptococcus pneumoniae strain R800); experiment: SEC; BioBasic SEC-300A, 10 mM TRIS pH 6.5, 150 mM NaCl, 100 mM malic acid; reduced sample, 1 mM DTT added; both purified
[4] = molecular target: RitR (Repressor of iron transport Regulator), wild type (Streptococcus pneumoniae strain R800); experiment: SEC; BioBasic SEC-300A, 10 mM TRIS pH 6.5, 150 mM NaCl, 100 mM malic acid; no DTT and no H2O2; both purified; remark: listed apart in the source
[5] = molecular target: RitR (Repressor of iron transport Regulator), wild type (Streptococcus pneumoniae strain R800); experiment: condition: only with 1 mM iron, magnesium, zinc, calcium or manganese, no oxidant; SEC; wild-type RitR 116 μM pre-incubated with 1 mM iron, magnesium, zinc, calcium or manganese; conditions as for Fig 2; both purified
[6] = molecular target: T1, RitR (Repressor of iron transport Regulator), wild type (Streptococcus pneumoniae strain R800), A0ACD7; experiment: crystal structure; RitROX: RitR treated with 1 mM H2O2, dimer peak from SEC; crystals from PEG 3350, magnesium sulfate, with 1 mM H2O2, pH 6.5; both purified; settings: remark: other sources report otherwise
T1 chain: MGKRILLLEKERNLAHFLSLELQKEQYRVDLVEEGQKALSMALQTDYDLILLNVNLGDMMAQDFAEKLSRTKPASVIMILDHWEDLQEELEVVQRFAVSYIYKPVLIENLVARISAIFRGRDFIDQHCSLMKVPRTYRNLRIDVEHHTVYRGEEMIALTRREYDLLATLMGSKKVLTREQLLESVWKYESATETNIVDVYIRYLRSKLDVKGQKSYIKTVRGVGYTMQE

[7] = molecular target: T1, RitR (Repressor of iron transport …); experiment: SEC; wild-type RitR 116 μM pre-incubated with 1 mM CuCl2; conditions as for Fig 2; both purified; settings: remark: other sources report otherwise
[8] = molecular target: T1, RitR (Repressor of iron transport …); experiment: SEC; BioBasic SEC-300A, 10 mM TRIS pH 6.5, 150 mM NaCl, 100 mM malic acid; 200 μM RitR exposed to 1 mM H2O2 for 3 h; both purified; settings: remark: other sources report otherwise
[9] = molecular target: T1, RitR (Repressor of iron transport …); experiment: 2D 1H-15N HSQC NMR; 15N-labelled protein, 360 μM, no DTT; both purified; settings: remark: other sources report otherwise
[10] = molecular target: T1, RitR (Repressor of iron transport …); experiment: non-reducing SDS-PAGE; purified RitR in DTT, excess oxidant (20 mM) for 20 min at room temperature, iodoacetamide, 12% gel, Coomassie; dimer with H2O2 and much less with diamide; both purified; settings: remark: other sources report otherwise

Molecule: RitR (Repressor of iron transport Regulator), wild type (from UniProt A0ACD7PPZ9 1-229)
binding [1]: no binding (condition: without H2O2) | binding [2]: no binding (condition: with 10 mM DTT) | binding [3]: no binding (condition: with 1 mM DTT, no H2O2) | binding [4]: binds weakly | binding [5]: no binding

binding [6]: binds | binding [7]: binds | binding [8]: binds | binding [9]: binds | binding [10]: binds
B1: RitR (Repressor of iron transport Regulator), wild type, A0ACD7PPZ9 1-229 (protein)
chain: T1 chain
